Experimental data from PMC7284125, “Identification of annotated bioactive molecules that impair motility of the blood fluke Schistosoma mansoni” (International Journal for Parasitology: Drugs and Drug …, 2020).

The chains behind the UniProt entries cited, without tags or fusion partners.
UniProt G4LUJ1, entry or part of it: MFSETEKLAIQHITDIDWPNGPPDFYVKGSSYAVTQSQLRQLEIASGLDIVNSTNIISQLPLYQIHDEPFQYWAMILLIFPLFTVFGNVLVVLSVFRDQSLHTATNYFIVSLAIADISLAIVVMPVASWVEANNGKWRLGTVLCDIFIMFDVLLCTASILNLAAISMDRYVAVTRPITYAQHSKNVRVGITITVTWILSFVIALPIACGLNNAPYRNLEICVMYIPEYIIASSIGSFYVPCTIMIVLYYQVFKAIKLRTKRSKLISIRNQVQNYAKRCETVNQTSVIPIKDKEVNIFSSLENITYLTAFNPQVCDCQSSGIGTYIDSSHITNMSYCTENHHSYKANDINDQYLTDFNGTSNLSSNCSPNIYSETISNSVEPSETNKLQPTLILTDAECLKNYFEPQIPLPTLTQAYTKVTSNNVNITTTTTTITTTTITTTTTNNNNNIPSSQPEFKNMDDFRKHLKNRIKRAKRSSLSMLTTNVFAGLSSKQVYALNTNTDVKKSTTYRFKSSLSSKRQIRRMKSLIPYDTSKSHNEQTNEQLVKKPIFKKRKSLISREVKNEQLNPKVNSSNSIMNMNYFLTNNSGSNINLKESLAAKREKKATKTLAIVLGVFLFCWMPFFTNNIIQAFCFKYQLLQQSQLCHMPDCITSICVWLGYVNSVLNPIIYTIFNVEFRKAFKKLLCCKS

Target: SmD2 (Schistosoma mansoni, UniProt G4LUJ1)
Experiment: cell-based

Row | Compound | IC50 [µM]
1 | O=C(CCCN1CCC(O)(c2ccc(Cl)cc2)CC1)c1ccc(F)cc1 [haloperidol] | 24.3
2 | O=C1CCc2ccc(OCCCCN3CCN(c4cccc(Cl)c4Cl)CC3)cc2N1 [Aripiprazole] | 3.75
